Among the data in patent US20250011448A1 are binding values, retold here.

Substitutions are numbered along the chain they refer to. Results are given in words; binding and its absence hold for the method and conditions named.

Assay [1] has as its target insulin. The assay is described as follows: ELISA, plate coated with insulin, serial dilution of antibody. A general note: ELISA stands for enzyme-linked immunosorbent assay.
In assay [2] the target is insulin. The assay is described as follows: non-specific binding ELISA on plate-coated insulin, goat anti-human IgG Fc-AP detection, OD405.

B1: 6F12 chimeric anti-TNFR2 antibody (antibody, V domains shown)
VH: QIQLVQSGPELKKPGETVKISCKTSGYTFTIYGMNWVKQAPGKGLKWMGWIHTYTGEPTYADDFKGRFVFSLETSDSTAYLQINNLKSEDMATYFCVRRERYGSFWGQGTLVTVSA
VL: DIVLTQSPASLAVSLGQRATISCTASQSVDYGGVSYMNWYQQKPGQPPKLLIYGASNQESGIPVRFSGSGSGTDFTLNIHPVEEEDAATYYCQQSNEDPPTFGAGTKLELK
In the case of B1, in the assay with insulin [1], the binding entry was “no binding”.

B2: 51B5 chimeric anti-TNFR2 antibody (antibody, V domains shown)
VH: QVQLQQSGAELARPGTSVKLSCKASGYTFTDDYIDWVKQRTGQGLEWIGEIYPGSGNTYYNEKFKGKATLTADKSSSTAYMQLSSLTSEDSAVYFCARSQVYGKIAMDHWGQGTSVTVSS
VL: DIVLTQSPASLAVSLGQRATISCRASESVDNSGNSFMHWYQQIPGQPPKLLIYRASNLESGIPARFSGSGARTDFTLTIDPVGAVDVATYYCQQSKEDPYTFGGGTKLEIE
For B2, the binding entry with insulin [1] is recorded as “no binding”; with insulin [2], “no binding (tested: about 100 ug/ml)”.

B3: 102E4 chimeric anti-TNFR2 antibody (antibody, V domains shown)
VH: EVLLQQSGAELVRPGASVKLSCTASGFNIKDDFIHWVQQRPEQGLEWIGRINPSNANTEYAPKFQDKATITTDTSSNTAYLQLSSLTSEDTAVYYCTRNDGYYDGLFYWGQGTTLTVSS
VL: DIVMTQSHKFMSSSVGDRVSITCKASQDVGTAVAWYQQKPGQSPKLLIYWASTRHTGVPDRFTGSGSGTDFTLTISNVQSEDLADYFCQQYSSYPFTFGSGTKLEIK
Regarding B3, the binding entry with insulin [1] is listed as “no binding”; with insulin [2], “no binding (tested: about 100 ug/ml)”.

B4: 29G3 chimeric anti-TNFR2 antibody (antibody, V domains shown)
VH: EVMLVESGGASVKPGGSLKLSCAASGFTFSNFAMSWVRQTPEKRLEWVATIRSGDNYSYYSDNVKGRFTISRDNARNTLYLQMSSLRSKDTSIYYCARNWDKVFDYWGQGTTLTVSS
VL: DIVLTQSPASLAVSLGQRATISCRASESVDSYGYSFMHWYQQKPGQPPKLLIYRASNLKSGIPARFSGSGSRTDFTLTINPVEADDVATYYCQQSNEDHTFGGGTKLEIK
Turning to B4, the binding result is given as “no binding” with insulin [1] and “no binding (tested: about 100 ug/ml)” with insulin [2].

B5: 15H10 chimeric anti-TNFR2 antibody (antibody, V domains shown)
VH: DVQLQESGPGLVTPSQSLSLTCSVTGYSITSGYYWNWIRQFPGNKLEWMGYITYDGNNNYNPSLKSRFSITRDTSKNQFFLKLNSVTSEDTATYYCARGDYGDSAMDYWGQGTSVTVSS
VL: EIVLTQSPAITAASLGQKVTITCSASSGVNYMHWYQQKSGTSPKPWIYEISKLASGVPARFSGSGSGTSYSLTISSMEAEDAAIYYCQQWNYPLITFGAGTKVELK
Consider B5, for which the binding entry is recorded as “no binding” with insulin [1] and “no binding (tested: about 100 ug/ml)” with insulin [2].

B6: 11C1 chimeric anti-TNFR2 antibody (antibody, V domains shown)
VH: B5 VH with Q5R, F41I, N61D, S66N, F68I, K82T
VL: B5 VL with G28S, N30S, T73I, V103L
For B6, the binding result was “no binding” with insulin [1] and “no binding (tested: about 100 ug/ml)” in the assay with insulin [2].

B7: 85G8.4 chimeric anti-TNFR2 antibody (antibody, V domains shown)
VH: EVQLQQSGPELVKPGASVKISCKTSGYTFTDFNMDWVKQSHGKSLEWIGYINPNNGDAAYNQKFKSKATLTVDKSSNTAYMELHSLTSDDSAVYYCARWGWAFAYWGQGTLVTVSA
VL: DIVMTQSHKIMSTSVGDRVSITCKASQDVKTAVAWYQQKPGQSPKLLIYATSYRYTGVPDRFTGSGSGTDFTFTISTVQAEDLAVYYCQQHYSIPYTFGGGTKLEIK
B7: the binding result was “no binding” with insulin [1] and “no binding (tested: about 100 ug/ml)” in the assay with insulin [2].
